# The supplement of paper PMC11732987, “Enantioselective OTUD7B fragment discovery through chemoproteomics screening and high-throughput optimisation” (Communications Chemistry, 2025)
# Sequences of proteins named here, by UniProt entry; tags and fusion partners are left off. A change or cut given only in a name is not applied to a line headed by its entry. Residues count along the entry.
# UniProt Q8N2A8: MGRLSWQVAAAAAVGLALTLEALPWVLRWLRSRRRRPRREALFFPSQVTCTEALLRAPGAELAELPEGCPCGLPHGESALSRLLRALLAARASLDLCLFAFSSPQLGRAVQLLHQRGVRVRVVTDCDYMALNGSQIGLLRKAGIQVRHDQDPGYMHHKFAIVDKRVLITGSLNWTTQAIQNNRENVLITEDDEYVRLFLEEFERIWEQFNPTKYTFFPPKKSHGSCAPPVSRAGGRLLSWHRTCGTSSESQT
# UniProt Q8NCC3: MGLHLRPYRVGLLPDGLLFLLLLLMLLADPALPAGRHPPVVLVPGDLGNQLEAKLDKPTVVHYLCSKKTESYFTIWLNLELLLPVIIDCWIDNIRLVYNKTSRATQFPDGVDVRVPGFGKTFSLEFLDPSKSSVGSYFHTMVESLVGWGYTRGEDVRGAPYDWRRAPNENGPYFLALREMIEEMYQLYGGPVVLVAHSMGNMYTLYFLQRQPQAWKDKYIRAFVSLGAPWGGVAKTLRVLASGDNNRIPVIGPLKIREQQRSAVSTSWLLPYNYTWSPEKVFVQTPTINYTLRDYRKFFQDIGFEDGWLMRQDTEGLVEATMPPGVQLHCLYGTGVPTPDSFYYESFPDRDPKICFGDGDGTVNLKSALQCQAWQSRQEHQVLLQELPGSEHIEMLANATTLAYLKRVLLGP
# UniProt Q14651: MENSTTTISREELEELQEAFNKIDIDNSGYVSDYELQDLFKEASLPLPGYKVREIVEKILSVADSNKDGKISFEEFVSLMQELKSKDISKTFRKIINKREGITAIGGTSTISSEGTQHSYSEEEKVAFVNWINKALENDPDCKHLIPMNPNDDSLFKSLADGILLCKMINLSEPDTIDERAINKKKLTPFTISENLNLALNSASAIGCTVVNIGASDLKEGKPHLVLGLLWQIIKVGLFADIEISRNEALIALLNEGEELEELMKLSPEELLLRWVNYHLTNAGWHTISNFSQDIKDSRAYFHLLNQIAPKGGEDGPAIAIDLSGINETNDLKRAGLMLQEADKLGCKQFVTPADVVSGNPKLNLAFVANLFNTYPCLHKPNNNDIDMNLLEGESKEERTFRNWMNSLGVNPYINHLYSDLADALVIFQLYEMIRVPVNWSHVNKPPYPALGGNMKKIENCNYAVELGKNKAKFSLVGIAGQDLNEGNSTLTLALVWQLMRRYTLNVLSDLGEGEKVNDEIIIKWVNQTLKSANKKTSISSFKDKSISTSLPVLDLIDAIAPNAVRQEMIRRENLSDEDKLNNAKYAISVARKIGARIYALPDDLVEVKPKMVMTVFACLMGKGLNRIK
# UniProt Q7RTV0, whole entry, looked up: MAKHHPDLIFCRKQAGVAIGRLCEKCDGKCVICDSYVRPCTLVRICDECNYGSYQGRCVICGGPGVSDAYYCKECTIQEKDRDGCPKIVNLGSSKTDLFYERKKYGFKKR
# UniProt Q5JRX3: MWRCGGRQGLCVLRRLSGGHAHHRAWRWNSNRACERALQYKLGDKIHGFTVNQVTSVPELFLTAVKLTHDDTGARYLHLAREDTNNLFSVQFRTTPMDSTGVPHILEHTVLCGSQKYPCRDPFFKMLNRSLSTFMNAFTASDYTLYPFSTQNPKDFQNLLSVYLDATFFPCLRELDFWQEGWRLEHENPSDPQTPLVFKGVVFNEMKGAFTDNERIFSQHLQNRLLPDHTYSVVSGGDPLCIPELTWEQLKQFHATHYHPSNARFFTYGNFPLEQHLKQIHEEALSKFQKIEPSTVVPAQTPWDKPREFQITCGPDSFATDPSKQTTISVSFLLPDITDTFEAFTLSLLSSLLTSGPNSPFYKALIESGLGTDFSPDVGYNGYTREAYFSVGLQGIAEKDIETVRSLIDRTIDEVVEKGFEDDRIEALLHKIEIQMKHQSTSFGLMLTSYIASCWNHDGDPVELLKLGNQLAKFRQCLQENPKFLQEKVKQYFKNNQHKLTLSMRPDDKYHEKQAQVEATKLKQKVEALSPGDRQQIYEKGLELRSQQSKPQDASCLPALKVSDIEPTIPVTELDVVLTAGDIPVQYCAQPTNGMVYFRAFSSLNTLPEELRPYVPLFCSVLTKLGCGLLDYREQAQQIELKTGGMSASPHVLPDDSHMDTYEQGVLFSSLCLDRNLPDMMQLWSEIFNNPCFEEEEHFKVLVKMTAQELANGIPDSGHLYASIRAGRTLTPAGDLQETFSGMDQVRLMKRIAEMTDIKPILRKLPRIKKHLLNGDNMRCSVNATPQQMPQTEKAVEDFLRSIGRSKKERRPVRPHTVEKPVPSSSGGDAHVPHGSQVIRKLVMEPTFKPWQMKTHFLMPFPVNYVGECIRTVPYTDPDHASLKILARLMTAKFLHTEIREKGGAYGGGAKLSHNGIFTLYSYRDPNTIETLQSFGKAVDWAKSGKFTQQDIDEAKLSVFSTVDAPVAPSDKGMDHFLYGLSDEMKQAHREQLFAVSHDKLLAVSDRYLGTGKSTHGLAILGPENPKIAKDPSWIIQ
# UniProt Q86UU1: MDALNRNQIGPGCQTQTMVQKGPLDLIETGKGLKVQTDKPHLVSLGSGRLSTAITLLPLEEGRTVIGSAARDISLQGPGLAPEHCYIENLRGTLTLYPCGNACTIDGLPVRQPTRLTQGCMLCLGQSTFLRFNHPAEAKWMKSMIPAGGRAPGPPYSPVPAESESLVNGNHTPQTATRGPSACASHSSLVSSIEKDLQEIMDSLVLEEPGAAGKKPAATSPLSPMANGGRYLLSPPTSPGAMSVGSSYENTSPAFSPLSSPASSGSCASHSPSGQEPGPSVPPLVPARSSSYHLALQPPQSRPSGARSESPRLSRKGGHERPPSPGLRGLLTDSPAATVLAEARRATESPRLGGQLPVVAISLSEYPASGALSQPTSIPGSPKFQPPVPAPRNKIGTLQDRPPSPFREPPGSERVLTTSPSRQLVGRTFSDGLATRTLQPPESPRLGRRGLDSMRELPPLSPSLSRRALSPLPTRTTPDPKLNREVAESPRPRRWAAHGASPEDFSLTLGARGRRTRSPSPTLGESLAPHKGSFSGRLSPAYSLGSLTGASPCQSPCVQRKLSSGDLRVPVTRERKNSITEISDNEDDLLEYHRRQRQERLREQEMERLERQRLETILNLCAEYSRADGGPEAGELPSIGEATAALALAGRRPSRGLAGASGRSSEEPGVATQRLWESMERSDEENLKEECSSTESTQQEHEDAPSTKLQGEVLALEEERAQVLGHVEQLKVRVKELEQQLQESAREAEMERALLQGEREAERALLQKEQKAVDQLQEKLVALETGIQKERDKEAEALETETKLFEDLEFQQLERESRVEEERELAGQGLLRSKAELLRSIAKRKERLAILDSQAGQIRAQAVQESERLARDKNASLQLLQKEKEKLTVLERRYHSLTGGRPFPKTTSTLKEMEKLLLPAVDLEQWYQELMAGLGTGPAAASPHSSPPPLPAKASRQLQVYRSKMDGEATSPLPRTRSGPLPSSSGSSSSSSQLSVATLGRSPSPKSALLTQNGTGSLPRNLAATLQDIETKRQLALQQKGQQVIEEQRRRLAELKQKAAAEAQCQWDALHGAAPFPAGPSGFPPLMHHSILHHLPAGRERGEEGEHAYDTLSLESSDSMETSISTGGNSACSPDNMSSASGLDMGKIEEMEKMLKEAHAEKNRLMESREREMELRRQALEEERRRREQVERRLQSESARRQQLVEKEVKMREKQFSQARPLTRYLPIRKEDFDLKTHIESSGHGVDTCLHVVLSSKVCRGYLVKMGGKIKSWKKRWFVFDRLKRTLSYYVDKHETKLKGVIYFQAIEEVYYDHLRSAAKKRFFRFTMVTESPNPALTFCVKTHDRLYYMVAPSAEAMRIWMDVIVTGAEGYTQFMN
# UniProt P53350: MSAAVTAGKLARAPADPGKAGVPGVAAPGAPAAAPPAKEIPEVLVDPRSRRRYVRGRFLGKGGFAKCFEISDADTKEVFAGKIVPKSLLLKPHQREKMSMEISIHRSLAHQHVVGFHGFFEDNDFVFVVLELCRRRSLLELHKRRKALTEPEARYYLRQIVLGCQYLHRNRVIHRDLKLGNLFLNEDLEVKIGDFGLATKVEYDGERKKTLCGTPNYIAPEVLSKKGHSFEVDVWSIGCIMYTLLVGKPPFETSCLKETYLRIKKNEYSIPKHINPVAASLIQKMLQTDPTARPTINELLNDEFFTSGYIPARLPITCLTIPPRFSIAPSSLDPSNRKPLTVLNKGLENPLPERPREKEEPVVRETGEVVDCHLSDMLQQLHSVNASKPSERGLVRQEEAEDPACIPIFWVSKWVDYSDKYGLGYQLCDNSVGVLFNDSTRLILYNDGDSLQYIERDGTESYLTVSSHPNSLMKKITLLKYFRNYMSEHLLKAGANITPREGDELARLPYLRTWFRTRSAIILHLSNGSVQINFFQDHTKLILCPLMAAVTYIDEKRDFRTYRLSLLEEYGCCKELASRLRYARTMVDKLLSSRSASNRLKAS
# UniProt O00459: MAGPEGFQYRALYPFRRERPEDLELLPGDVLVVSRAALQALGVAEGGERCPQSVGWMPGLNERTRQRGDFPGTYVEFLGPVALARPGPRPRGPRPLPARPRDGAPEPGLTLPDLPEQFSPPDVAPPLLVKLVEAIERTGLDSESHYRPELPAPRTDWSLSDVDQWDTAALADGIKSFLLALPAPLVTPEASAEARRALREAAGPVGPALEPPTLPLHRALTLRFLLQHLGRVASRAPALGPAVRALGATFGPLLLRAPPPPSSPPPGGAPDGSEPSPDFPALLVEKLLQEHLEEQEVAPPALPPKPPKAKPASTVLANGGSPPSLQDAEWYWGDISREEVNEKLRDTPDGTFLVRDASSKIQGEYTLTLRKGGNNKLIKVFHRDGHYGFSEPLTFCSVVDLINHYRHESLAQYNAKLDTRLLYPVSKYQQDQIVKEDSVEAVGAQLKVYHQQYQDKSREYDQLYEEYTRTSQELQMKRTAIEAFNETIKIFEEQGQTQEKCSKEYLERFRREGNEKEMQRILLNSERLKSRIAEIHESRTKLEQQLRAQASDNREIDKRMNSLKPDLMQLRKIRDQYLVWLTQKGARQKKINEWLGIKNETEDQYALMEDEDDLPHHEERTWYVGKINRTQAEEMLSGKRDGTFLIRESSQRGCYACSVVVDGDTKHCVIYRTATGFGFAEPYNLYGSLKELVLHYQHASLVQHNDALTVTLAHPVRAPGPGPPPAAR
# UniProt Q16512, 569-606: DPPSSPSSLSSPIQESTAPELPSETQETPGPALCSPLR
# UniProt O75928: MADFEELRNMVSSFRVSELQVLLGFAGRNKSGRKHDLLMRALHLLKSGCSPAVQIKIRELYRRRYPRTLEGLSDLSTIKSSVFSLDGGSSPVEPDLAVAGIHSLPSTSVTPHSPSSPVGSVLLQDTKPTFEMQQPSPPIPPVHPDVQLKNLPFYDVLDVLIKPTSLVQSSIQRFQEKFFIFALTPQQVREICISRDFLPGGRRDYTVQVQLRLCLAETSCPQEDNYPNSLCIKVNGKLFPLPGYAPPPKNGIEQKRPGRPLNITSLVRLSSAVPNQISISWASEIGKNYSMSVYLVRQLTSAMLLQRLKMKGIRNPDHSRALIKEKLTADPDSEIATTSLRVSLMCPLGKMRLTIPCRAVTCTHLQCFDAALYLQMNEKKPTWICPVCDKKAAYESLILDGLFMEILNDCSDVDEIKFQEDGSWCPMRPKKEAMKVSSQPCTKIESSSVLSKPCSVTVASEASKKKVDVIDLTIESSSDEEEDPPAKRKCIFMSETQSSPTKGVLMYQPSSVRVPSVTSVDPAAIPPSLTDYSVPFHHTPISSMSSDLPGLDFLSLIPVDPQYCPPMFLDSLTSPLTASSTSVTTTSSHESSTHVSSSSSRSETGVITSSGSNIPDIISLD
# UniProt P09884, 1171-1191: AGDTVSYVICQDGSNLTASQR
# UniProt Q92508, 366-396: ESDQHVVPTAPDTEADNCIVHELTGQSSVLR
# UniProt Q9GZP4: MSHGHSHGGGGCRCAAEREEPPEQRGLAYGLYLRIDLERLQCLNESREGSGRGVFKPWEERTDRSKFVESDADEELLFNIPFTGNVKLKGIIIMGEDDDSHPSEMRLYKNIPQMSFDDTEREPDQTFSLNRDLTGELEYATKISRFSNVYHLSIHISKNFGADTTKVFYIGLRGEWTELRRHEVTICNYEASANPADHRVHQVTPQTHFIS
# This is one part of the list. The data scatter; read single values as rough.
# Compound: ClCC(=O)N[C@@H]1CCCc2ccccc12
# Test: log2 mean competition ratio of IA-DTB cysteine labelling (DMSO/compound) (log2 ratio); higher = stronger cysteine engagement by compound
# Conditions: 50 µM; treatment time: 4 h; cell line lysate: HEK293T
# Procedure: (§1)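 IA-DTB competitive cysteine chemoproteomics in HEK293T RIPA lysate. Lysates were treated with compound 29 or 30 at 50 or 200 µM for 4 h, then IA-DTB (500 µM, 1 h), trypsin-digested, NeutrAvidin-enriched and analysed by diaPASEF. Competition ratio = intensity DMSO / intensity compound (n=4 treated, n=64 DMSO); binding: mean log2 CR ≥ 1 and p ≤ 0.05 plus QC filters. Target is the cysteine site.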
row,Target,log2 mean competition ratio
1,PLD6 C226 (UniProt Q8N2A8),-0.304
2,PLA2G15 C355 (UniProt Q8NCC3),-0.198
3,PLS1 C142 (UniProt Q14651),-0.272
4,PHF5A C11 (UniProt Q7RTV0),0.3
5,PKM C152,-0.135
6,POLG C760,-0.0383
7,PITRM1 C556 (UniProt Q5JRX3),-0.0939
8,PHLDB1 C13 (UniProt Q86UU1),0.494
9,PLK1 C212 (UniProt P53350),0.389
10,PIK3R2 C50 (UniProt O00459),0.0778
11,POLR1D C68,-0.0895
12,PKM C358,-0.372
13,PNKP C516 (UniProt Q96T60),-0.147
14,PKN1 C602 (UniProt Q16512),-0.295

# Same assay, conditions: 200 µM; treatment time: 4 h; cell line lysate: HEK293T
row,Target,log2 mean competition ratio
1,PLD6 C226 (UniProt Q8N2A8),-0.233
2,PLA2G15 C355 (UniProt Q8NCC3),-0.0227
3,PLS1 C142 (UniProt Q14651),-0.355
4,PHF5A C11 (UniProt Q7RTV0),-0.131
5,PKM C152,-0.518
6,POLG C760,-0.0267
7,PITRM1 C556 (UniProt Q5JRX3),0.116
8,PHLDB1 C13 (UniProt Q86UU1),-0.194
9,PIAS2 C490 (UniProt O75928),0.00444
10,PLK1 C212 (UniProt P53350),0.412
11,PIK3R2 C50 (UniProt O00459),0.25
12,POLR1D C68,0.307
13,PKM C358,-0.00788
14,PNKP C516 (UniProt Q96T60),-0.136
15,PKN1 C602 (UniProt Q16512),-0.561

# Compound: ClCC(=O)N[C@H]1CCCc2ccccc12
# Test: as above
# Conditions: 50 µM; treatment time: 4 h; cell line lysate: HEK293T
# Procedure: as §1
row,Target,log2 mean competition ratio
1,PML C189 (UniProt P29590),-0.389
2,POLL C425,-0.795
3,POLA1 C1180 (UniProt P09884),-0.0234
4,POLQ C2295 (UniProt O75417),0.281
5,PIEZO1 C383 (UniProt Q92508),-0.566
6,PLD6 C226 (UniProt Q8N2A8),0.588
7,PLA2G15 C355 (UniProt Q8NCC3),-0.0523
8,PLEKHA2 C191 (UniProt Q9HB19),0.279
9,PLS1 C142 (UniProt Q14651),-0.36
10,PHF5A C11 (UniProt Q7RTV0),0.359
11,PKM C152,0.269
12,POLG C760,0.609
13,PITRM1 C556 (UniProt Q5JRX3),-0.275
14,PHLDB1 C13 (UniProt Q86UU1),-0.279
15,PITHD1 C187 (UniProt Q9GZP4),-0.139
16,POLR1B C1061 (UniProt Q9H9Y6),0.015
17,PMM1 C57 (UniProt Q92871),-0.17

row,Target,log2 mean competition ratio
1,PHF3 C1631 (UniProt Q92576),0.203
2,PIAS2 C490 (UniProt O75928),0.201
3,PIK3R4 C955 (UniProt Q99570),-0.0528
4,POLD2 C83 (UniProt P49005),-0.0735
5,POLE C747 (UniProt Q07864),0.278
6,PLK1 C212 (UniProt P53350),0.442
7,PIK3R2 C50 (UniProt O00459),0.681
8,POLR1D C68,0.00712
9,PKNOX1 C109 (UniProt P55347),0.0736
10,PLCB3 C1176 (UniProt Q01970),-0.376
11,PKM C358,-0.214
12,PIAS2 C425 (UniProt O75928),-0.329
13,PLAA C631 (UniProt Q9Y263),-0.0999
14,PNKP C516 (UniProt Q96T60),-0.00298
15,PHLPP1 C1312 (UniProt O60346),-0.4
16,PHGDH C295,-0.118
17,PKN1 C602 (UniProt Q16512),-0.0586

# Same assay, conditions: 200 µM; treatment time: 4 h; cell line lysate: HEK293T
row,Target,log2 mean competition ratio
1,PML C189 (UniProt P29590),-0.0687
2,POLL C425,-0.046
3,POLA1 C1180 (UniProt P09884),0.00817
4,POLQ C2295 (UniProt O75417),0.513
5,PIEZO1 C383 (UniProt Q92508),-0.361
6,PLCXD1 C153 (UniProt Q9NUJ7),0.031
7,PLD6 C226 (UniProt Q8N2A8),-0.013
8,PLA2G15 C355 (UniProt Q8NCC3),0.0674
9,PLEKHA2 C191 (UniProt Q9HB19),0.243
10,PLS1 C142 (UniProt Q14651),0.0174
11,PHF5A C11 (UniProt Q7RTV0),0.035
12,PKM C152,-0.293
13,POLG C760,0.0862
14,PITRM1 C556 (UniProt Q5JRX3),-0.0173
15,PHLDB1 C13 (UniProt Q86UU1),-0.327
16,PITHD1 C187 (UniProt Q9GZP4),0.0285
17,POLR1B C1061 (UniProt Q9H9Y6),0.137
18,PMM1 C57 (UniProt Q92871),0.306
19,PHF3 C1631 (UniProt Q92576),0.267

row,Target,log2 mean competition ratio
1,PIAS2 C490 (UniProt O75928),0.136
2,PLD2 C736,-0.36
3,PIK3R4 C955 (UniProt Q99570),0.308
4,POLD2 C83 (UniProt P49005),0.0876
5,POLE C747 (UniProt Q07864),0.00854
6,PLK1 C212 (UniProt P53350),0.406
7,PIK3R2 C50 (UniProt O00459),0.118
8,POLR1D C68,-0.214
9,PKNOX1 C109 (UniProt P55347),0.106
10,PLCB3 C1176 (UniProt Q01970),0.259
11,PKM C358,-0.109
12,PIAS2 C425 (UniProt O75928),-0.222
13,PLAA C631 (UniProt Q9Y263),-0.204
14,PNKP C516 (UniProt Q96T60),0.0415
15,PHLPP1 C1312 (UniProt O60346),0.238
16,PHGDH C295,-0.114
17,POLR1G C14,-0.0814
18,PKN1 C602 (UniProt Q16512),-0.354
